The values that follow are results of earlier work, collected in publication PMC2747801 (European journal of pharmaceutical sciences : official …, 2009).

The conditions of this data set: rat, in vivo; cited from earlier work.

As for `COc1cc2c(cc1OC)C(=O)C(CC1CCN(Cc3ccccc3)CC1)C2` (stereo not shown) [donepezil], the “logPS(obs)” value is recorded as −1.50 mL/g/s.
